Results are given in words; binding and its absence hold for the method and conditions named. Binding can be weak; no strength is given.
Biological target: MepM (E. coli) (UniProt P0AFS9)
Experiment: MST

Amino acid sequences for entries named in this document (tags omitted). A change or cut given only in a name is not applied to a line headed by its entry.
UniProt P0AFS9: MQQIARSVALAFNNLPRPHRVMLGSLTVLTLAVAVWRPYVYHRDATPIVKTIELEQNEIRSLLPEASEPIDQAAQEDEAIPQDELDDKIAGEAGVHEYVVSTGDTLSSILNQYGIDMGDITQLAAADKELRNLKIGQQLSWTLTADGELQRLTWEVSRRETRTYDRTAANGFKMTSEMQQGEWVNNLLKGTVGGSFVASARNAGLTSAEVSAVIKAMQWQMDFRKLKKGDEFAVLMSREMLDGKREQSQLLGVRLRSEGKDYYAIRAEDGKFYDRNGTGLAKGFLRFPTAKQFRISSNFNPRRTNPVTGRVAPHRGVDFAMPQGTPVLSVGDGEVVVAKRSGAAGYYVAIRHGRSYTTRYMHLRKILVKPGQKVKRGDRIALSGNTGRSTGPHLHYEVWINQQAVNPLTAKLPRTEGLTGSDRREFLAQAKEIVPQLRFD

- binding: binds
B1: MepS (enzyme, UniProt P0AFV4 27-188)
chain: CSANNTAKNMHPETRAVGSETSSLQASQDEFENLVRNVDVKSRIMDQYADWKGVRYRLGGSTKKGIDCSGFVQRTFREQFGLELPRSTYEQQEMGKSVSRSNLRTGDLVLFRAGSTGRHVGIYIGNNQFVHASTSSGVIISSMNEPYWKKRYNEARRVLSRS
modifications: NT647 RED-NHS dye on amines where used as the labelled partner (fl-MepS)
